In all, about 300,000 compounds went through this assay and about 3,700 (1.2%) were called active. Inconclusive means that the source gave no clear call. Such entries were picked first, then a sample of the others. Calls follow the shape of the full dose curve; tested in HEK293 cells. A potency beside an inconclusive call is a rough fit, not a confirmed value.
Assay: qHTS for Inhibitors of binding or entry into cells for Lassa Virus; also: nearly all actives have a fitted effect of over 50% in size
Details: Lassa virus pseudotype entry inhibition, cell reporter; activity change, negative = inhibition: at 37.9 µM (top of the series) unless noted
% is scaled to controls: 0 for no effect and ±100 for the full control effect; potency is read from the fitted curve at half-maximal effect.

Row | SMILES | activity change, negative = inhibition | Potency
1 | Nc1c(C(=O)NCc2ccco2)c2nc3ccccc3nc2n1CCc1ccccc1F | inactive: -9.52% | –
2 | Cc1cc2oc(=O)cc(CN3CCCCC3C)c2cc1C(C)C (centres undefined) | – | inconclusive: 11.2 µM [inhibitor, partial curve, poor fit]
3 | CCN(CC)c1ccc(NC(=O)c2cc(OC)cc(OC)c2)c(C)c1 | – | inconclusive: 0.447 µM [inhibitor, full curve, poor fit]
4 | O=C(NCCc1ccccc1)c1noc2c1CCc1ccccc1-2 | inactive: -29.1% | –
5 | CCCCOc1ccc(C(=O)NCC(=O)OC2CCOC2=O)cc1 (centres undefined) | – | inconclusive: 14.6 µM [inhibitor, partial curve, poor fit]
6 | COc1ccc(CNCCC(c2ccccc2)C2CCOC(C)(C)C2)cc1 (centres undefined) | – | inconclusive: 35.5 µM [inhibitor, partial curve, poor fit]
7 | COc1ccc(F)cc1CN1CCN(C(=O)CCC(=O)Nc2nnc(C3CCCCC3)s2)CC1 | – | inconclusive: 3.16 µM [inhibitor, single point]
8 | Cc1ccc(C)c2[nH]c(=O)c(CN(CCCN(C)C)C(=O)NCc3ccccc3)cc12 | inactive: -0.358% | –
9 | CCOC(=O)c1c(NC(=O)C2CCCCC2C(=O)O)sc2c1CCCCC2 (centres undefined) | inactive: -0.824% | –
10 | COc1ccc(-c2cc(C(F)(F)F)n3ncc(-c4ccccc4)c3n2)cc1 | inactive: 0.306% [at 46.1 µM] | –
11 | CN(c1ccccc1)S(=O)(=O)c1ccc(C(=O)NCc2ccco2)cc1 | – | inconclusive: 11.2 µM [inhibitor, partial curve]
12 | COC(=O)c1ccc2c(=O)n(CCc3ccc(S(N)(=O)=O)cc3)c(SCC(=O)C(C)(C)C)nc2c1 | – | inconclusive: 0.316 µM [inhibitor, full curve, poor fit]
13 | Cc1ccc(-c2nc3c(c(=O)[nH]c(=O)n3CC(C)C)n2CC(C)C)cc1[N+](=O)[O-] | – | inconclusive: 3.98 µM [inhibitor, partial curve, poor fit]
14 | CCOC(=O)C1=C(C)n2c(s/c(=C/c3cccc([N+](=O)[O-])c3)c2=O)=NC1c1ccc(O)c(OC)c1 (centres undefined) | – | inconclusive: 8.2 µM [inhibitor, partial curve]
15 | Cc1ccc(N(Cc2ccccc2)C(=O)c2cc(S(=O)(=O)N3CCOCC3)ccc2C)cc1 | – | inconclusive: 35.5 µM [inhibitor, single point]
16 | COc1ccc(/C=C/C(=O)Nc2cccc(F)c2)cc1S(=O)(=O)N1CCOCC1 | – | active: 5.62 µM
17 | CCOC(=O)c1cccc(NS(=O)(=O)c2ccc(-c3coc(C)n3)cc2)c1 | inactive: -10.7% [at 46.1 µM] | –
18 | Cc1cccc(C)c1NC(=S)N1CCCN(C)CC1 | inactive: 11% | –
19 | CN(c1ccccc1)S(=O)(=O)c1cccc(C(=O)N2CCN(c3ccccn3)CC2)c1 | – | inconclusive: 11.2 µM [inhibitor, partial curve, poor fit]
20 | CC1(C)CC(=O)C=C(NCCN2CCN(C(=O)Cc3ccc(Cl)cc3)CC2)C1 | inactive: -9.21% | –
21 | COc1cccc(-n2c(CN3CCN(c4ccccc4)CC3)nc3ccc([N+](=O)[O-])cc3c2=O)c1 | – | inconclusive: 6.31 µM [inhibitor, single point]
22 | Cc1cccc(Nc2cc(C)nc(-n3nc(C)cc3C)n2)c1 | – | inconclusive: 15.8 µM [inhibitor, single point]
23 | CCOc1ccc(CN2C(=O)C(=O)c3cccc(C)c32)cc1OC | – | inconclusive: 5.62 µM [inhibitor, single point]

Row | SMILES | activity change, negative = inhibition | Potency
24 | Cc1cccc(NCC(=O)N/N=C/c2ccc(Br)cc2)c1 | – | inconclusive: 8.91 µM [inhibitor, partial curve, poor fit]
25 | COc1nnc(-c2ccc(C)c(S(=O)(=O)NCC3CCCO3)c2)c2ccccc12 (centres undefined) | – | inconclusive: 0.891 µM [activator, partial curve, poor fit]
26 | O=c1[nH]c2ccccc2cc1-c1noc(-c2cccnc2)n1 | inactive: 8.02% | –
27 | CCc1cccc(N2C(=O)CS(=O)(=O)C23C(=O)N(Cc2ccccc2)c2ccc(C)cc23)c1 (centres undefined) | – | inconclusive: 15.8 µM [inhibitor, single point]
28 | CC(Oc1ccc(Cl)cc1Cl)C(=O)NC(=S)N1CCc2ccccc21 (centres undefined) | inactive: 15.5% | –
29 | O=C(COc1ccccc1Cl)Nc1cccc(S(=O)(=O)NC2=NCCCCC2)c1 | inactive: -4.82% [at 46.1 µM] | –
30 | COc1ccc(-c2[nH]c3c(c2-c2c(-n4cccc4)n(C)c(=O)[nH]c2=O)c(=O)[nH]c(=O)n3C)cc1F | inactive: 1.75% [at 46.1 µM] | –
31 | Cc1cc2c(cc1C)NC1(C(=O)Nc3ccccc31)C1=C(CC(C)(C)CC1=O)N2 (centres undefined) | inactive: -2.27% | –
32 | COc1cc(OC)c(NC(=O)CCc2nc(-c3ccc(C)cc3)no2)cc1Cl | – | inconclusive: 35.5 µM [inhibitor, single point]
33 | CC1CCCN(C(c2cccs2)c2nnnn2Cc2ccccc2)C1 (centres undefined) | – | inconclusive: 0.58 µM [inhibitor, single point]
34 | COc1cccc(N2CCN(C(=O)c3oc4ccccc4c3NC(=O)Cc3ccc(OC)c(OC)c3)CC2)c1 | – | inconclusive: 1.78 µM [inhibitor, partial curve, poor fit]
35 | COc1ccc(-n2nnc(-c3nsc(NC(=O)c4cccc(C)c4)n3)c2C)cc1OC | inactive: -3.99% [at 46.1 µM] | –
36 | CC1(C)CC(=O)C=C(NC2=CC3OC(c4ccccc4)OCC3OC2=O)C1 (centres undefined) | – | inconclusive: 16.4 µM [inhibitor, single point]
37 | Cc1nn(Cc2ccccc2Cl)c2sc(C(=O)NC(C)(C)C)cc12 | – | inconclusive: 15.8 µM [inhibitor, single point]
38 | O=S(=O)(c1ccccc1)N(CC(O)CN1CCCC1)c1ccccc1 (centres undefined) | – | inconclusive: 20 µM [activator, single point]
39 | CN(C)CCCN(C(=O)c1cc(-c2cccs2)nc2ccccc12)c1nc2ccc(F)cc2s1 | – | active: 6.31 µM
40 | Fc1ccc(C(NCCc2ccc(Cl)cc2)c2nnc(-c3ccccc3Cl)o2)cc1 (centres undefined) | inactive: -23.7% [at 46.1 µM] | –
41 | COC(=O)c1ccc(Nc2cc(C)nc3ccccc23)cc1 | – | inconclusive: 35.5 µM [inhibitor, partial curve, poor fit]
42 | CC(OC(=O)c1ccc(S(=O)(=O)NCc2ccco2)cc1)C(=O)Nc1ccc(Cl)cn1 (centres undefined) | inactive: -2.6% | –
43 | O=Nc1c2cc3ccccc3[nH]c-2c2ccccc12 | – | inconclusive: 35.5 µM [inhibitor, single point]
44 | COc1cccc(NC(=O)/C(C#N)=C/c2c(C)n(Cc3ccccc3)c3ccccc23)c1 | – | inconclusive: 8.91 µM [inhibitor, partial curve]
45 | O=C(C1CCCN(S(=O)(=O)c2ccccc2)C1)N1CCN(c2ccc(F)cc2)CC1 (centres undefined) | – | inconclusive: 7.94 µM [inhibitor, partial curve, poor fit]
46 | CCC(CC)C(=O)c1c[nH]c(C(=O)NCc2cccs2)c1 | – | active: 2.51 µM

Row | SMILES | activity change, negative = inhibition | Potency
47 | Cc1cc(C(=S)N2CCOCC2)c(C)n1-c1ccc(Cl)cc1 | – | inconclusive: 29.1 µM [inhibitor, partial curve, poor fit]
48 | COc1ccccc1CNS(=O)(=O)c1c(C)[nH]c(C)c1C(=O)N1CCCC1 | inactive: 1.8% [at 46.1 µM] | –
49 | O=C(N/C(=C/c1cccnc1)C(=O)N1CCOCC1)c1ccccc1F | – | inconclusive: 35.5 µM [inhibitor, single point]
50 | Cc1ccc(N2CCN(Cc3nnc(-c4ccccc4F)o3)CC2)c(C)c1 | – | inconclusive: 5.01 µM [activator, partial curve, poor fit]
51 | CCCc1cc(=O)[nH]c2nnc(SCC(=O)Nc3ccc4c(c3)OCCO4)n12 | inactive: 14.1% | –
52 | CSc1ccc(/C=C/c2nc3ccccc3n2S(=O)(=O)c2ccc(Br)cc2)cc1 | – | inconclusive: 15.8 µM [inhibitor, single point]
53 | O=C(Nc1ccc(-c2nc3cccnc3s2)cc1)C1CCCO1 (centres undefined) | – | inconclusive: 5.8 µM [inhibitor, partial curve, poor fit]
54 | COc1ccccc1NC(=O)CSc1nc(=O)n(Cc2ccncc2)c2c1CCCC2 | inactive: -13.8% | –
55 | Cc1ccc(-c2c3c(=O)n(C)c(=O)n(C)c3c3cnc4ccccc4n23)cc1 | inactive: -18.9% [at 46.1 µM] | –
56 | O=CN1N=C(c2ccccc2)CC1c1ccc(Cl)cc1 (centres undefined) | inactive: -25.6% [at 46.1 µM] | –
57 | COc1cc(NC(=O)c2ccccc2)c(OC)cc1NC(=O)Cc1ccc(F)cc1 | – | inconclusive: 1.26 µM [inhibitor, single point]
58 | CC1Cc2ccccc2N1C(=O)CN1C(=O)NC(C)(CCc2ccccc2)C1=O (centres undefined) | inactive: -2.25% | –
59 | O=C(CSc1nc2ccccc2n1CC(=O)N1CCCC1)NCc1ccc2c(c1)OCO2 | inactive: 12.4% | –
60 | COc1cccc(NC(=O)c2cc(Cl)nnc2Cl)c1 | – | inconclusive: 0.794 µM [inhibitor, full curve, poor fit]
61 | O=C(c1ccco1)N1CCN(C(=O)c2ccccc2Oc2ccccc2)CC1 | – | inconclusive: 9.2 µM [inhibitor, partial curve, poor fit]
62 | COc1ccc(C(=O)NC(=S)Nc2ccc(Cc3ccncc3)cc2)cc1 | – | inconclusive: 35.5 µM [inhibitor, single point]
63 | O=C(CSc1cccc2cccnc12)OCC(=O)c1ccccc1 | – | inconclusive: 29.1 µM [inhibitor, single point]
64 | Cc1ccc(C)n1-c1nccc(-c2ccco2)n1 | inactive: -3.75% [at 46.1 µM] | –
65 | Cc1cc2nccc(-c3ccco3)n2n1 | inactive: -1.39% | –
66 | CCc1cccc(CC)c1NC(=O)COC(=O)CCc1cc(OC)c(OC)c(OC)c1 | – | inconclusive: 0.631 µM [activator, partial curve, poor fit]
67 | O=C(CCCN1C(=O)/C(=C/c2ccccc2Cl)SC1=S)Nc1ccccn1 | – | inconclusive: 4.47 µM [inhibitor, full curve]
68 | CC(NC(=O)c1ccccc1)C(=O)OCC(=O)N1c2ccccc2Sc2ccccc21 (centres undefined) | inactive: -2.62% | –
69 | N=C1c2ccccc2CN1NC(=O)c1ccccc1 | – | inconclusive: 10 µM [inhibitor, partial curve]

Four entries from above, as tab-separated lines:
Row	SMILES	activity change, negative = inhibition	Potency
7	COc1ccc(F)cc1CN1CCN(C(=O)CCC(=O)Nc2nnc(C3CCCCC3)s2)CC1	–	inconclusive: 3.16 µM [inhibitor, single point]
27	CCc1cccc(N2C(=O)CS(=O)(=O)C23C(=O)N(Cc2ccccc2)c2ccc(C)cc23)c1 (centres undefined)	–	inconclusive: 15.8 µM [inhibitor, single point]
37	Cc1nn(Cc2ccccc2Cl)c2sc(C(=O)NC(C)(C)C)cc12	–	inconclusive: 15.8 µM [inhibitor, single point]
39	CN(C)CCCN(C(=O)c1cc(-c2cccs2)nc2ccccc12)c1nc2ccc(F)cc2s1	–	active: 6.31 µM
